Legend:
[1] = Polarization by DNP (15 mM OXO63 radical, irradiating at 90940 MHz); conditions: 5 M solution in water
[2] = Spectroscopic (13C-NMR) detection of H2O2 with hyperpolarized probe

SMILES: O=C(c1ccccc1)[13C](=O)O [^13C-BFA, ^13C-benzoylformic acid]
- buildup time constant of DNP polarization ([1]; 15 mM OXO63 radical): 830 s
- enhancement factor ([1]; after 45 minutes, 15 mM OXO63): 5450 fold
- polarization ([1]; after 45 minutes, 15 mM OXO63): ~5%
- time of maximum integrated ratio of benzoic acid (C1) peak to unlabeled BFA (C1) peak ([2]; 5 mM probe, 100 mM phosphate buffer pH 7.8): 21 s
- detection of hydrogen peroxide ([2]; hyperpolarized, 10-1000 μM H2O2, pH 7.8, in vitro): can detect micromolar concentrations of hydrogen peroxide in vitro

Reference: patent US10245330B2, “Compositions and methods for imaging” (The Regents of the University of California, priority 2010, dated 2019)
